Test results: PMC7924852, “The Emericellipsins A–E from an Alkalophilic Fungus Emericellopsis alkalina Show Potent Activity against Multidrug-Resistant Pathogenic Fungi” (Journal of Fungi, 2021)

Tests used:
[1] = test system: MCF-7 (breast cancer cell); test: MTT cytotoxicity assay; assay type: cell-based; conditions: Homo sapiens, MCF7, 72 h, three experiments, each in triplicate
Procedure: (§1) Experiments for determining the cytotoxic activity of the compound in MTT assays were performed as previously described. The following tumor cell lines were used for this study: HCT-116 (colon cancer cell line), B16 (mouse melanoma cell line), K-562 (leukemia cell line), MDA-MB-231 (breast cancer line), and MCF-7 (breast cancer cell). Human postnatal fibroblasts were used as a normal cell line, and doxorubicin was used as a positive control. The cell lines were cultured in Dulbecco modified Eagle’s medium supplemented with 5% fetal calf serum, 2 mM Lglutamine, 100 U/mL penicillin, and […] streptomycin at 37 °C, 5% CO2 in a humidified atmosphere. Experiments were carried out on cells in the logarithmic phase of growth. The peptide was dissolved in DMSO as a 10 mM stock solution, followed by serial dilutions in water immediately before the experiment. Briefly, cells (5 × 10^3 in […] of culture medium) were plated in a 96-well plate and treated with 0.1% DMSO (blank control) or with […] of the peptide (0.10‒50 μM; each concentration in duplicate) for 72 h. […] Formazan was dissolved in DMSO, and the absorbance at 570 nm was measured. The cytotoxicity at a given EmiA concentration was calculated as the percentage of absorbance in wells with peptide-treated cells compared to that of blank control cells (100%). […]

[2] = test system: MDA-MB-231 (breast cancer line); test: MTT cytotoxicity assay; assay type: cell-based; conditions: Homo sapiens, 72 h, three experiments, each in triplicate
Procedure: as §1

Structure (SMILES): COc1cccc2c1C(=O)c1c(O)c3c(c(O)c1C2=O)C[C@@](O)(C(=O)CO)C[C@@H]3O[C@H]1C[C@H](N)[C@H](O)[C@H](C)O1 [Doxorubicin]
- IC50 [1]: 500 ± 60 nM
- IC50 [2]: 800 ± 90 nM
